Laboratory results published in PMC6470423.
No constants are given. Whether binding was seen depends on the method and setting. In cells and extracts the contact can be indirect. Some entries that bind do so weakly or less than the wild type. For part of these data: Tags and fused reporters may be left off the sequences shown.

The chains behind the UniProt entries cited, without tags or fusion partners.
UniProt P02340: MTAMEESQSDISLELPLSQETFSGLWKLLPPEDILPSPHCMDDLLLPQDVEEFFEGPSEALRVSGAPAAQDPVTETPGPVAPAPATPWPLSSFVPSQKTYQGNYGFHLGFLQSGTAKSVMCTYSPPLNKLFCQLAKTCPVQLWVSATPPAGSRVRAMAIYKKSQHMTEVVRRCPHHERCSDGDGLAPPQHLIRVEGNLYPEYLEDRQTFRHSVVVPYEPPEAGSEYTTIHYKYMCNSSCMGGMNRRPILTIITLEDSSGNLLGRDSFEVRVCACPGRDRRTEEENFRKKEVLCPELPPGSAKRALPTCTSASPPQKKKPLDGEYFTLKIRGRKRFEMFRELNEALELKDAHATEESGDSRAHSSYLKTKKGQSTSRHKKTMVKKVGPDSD

Assays:
[1] = target: Breast cancer susceptibility protein 1 (BRCA1) (mouse (endogenous in NSCs from C57BL/6J embryos)) (UniProt P48754); assay: co-IP; RIPA lysates (500 ug) of OGD/R-treated NSCs, anti-BRCA1 or anti-p53 or control IgG 12 h at 4°C, protein A/G-agarose beads, immunoblot
[2] = target: T1, GST-BRCA1-3 (aa 1591-1784, BRCT domain) (mouse) (UniProt P48754); assay: pull-down; GST-BRCA1 fragments on glutathione-Sepharose 4B beads, total lysates of OGD/R-treated NSCs added for 4 h at 4°C, immunoblot with anti-GST and anti-p53; only the target purified
T1 sequence: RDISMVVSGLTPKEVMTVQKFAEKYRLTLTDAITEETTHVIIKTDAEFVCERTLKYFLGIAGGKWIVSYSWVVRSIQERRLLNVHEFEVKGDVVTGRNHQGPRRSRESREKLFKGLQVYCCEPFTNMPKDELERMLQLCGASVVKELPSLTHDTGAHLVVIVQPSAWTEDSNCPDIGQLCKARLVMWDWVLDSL

[3] = target: GST-BRCA1-1 (aa 15-172, RING finger domain) (mouse) (UniProt P48754); assay: as above

binding [1]: binds
binding [2]: binds
binding [3]: binds
Substance: p53 (from UniProt P02340 1-390)
